Measurements reported in PubChem BioAssay AID743454 (Peter MacCallum Cancer Centre, 2014)
The deposit covers about 18,000 reagents; shown is a part drawn at random. Over the whole deposit, 450 (2.5%) were called active. 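Single biological run; no consistent viability z cut-off exists, so the class columns, not z-scores, define the calls.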 Entries without a mark were called inactive.

- Assay: 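Genes whose loss kills vorinostat-resistant colon cancer cells under vorinostat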 (primary screen)
- System: human HCT116-VR colon cancer cells, selected for vorinostat resistance
- Reagent: siRNA pool against human genes, 40 nM siRNA pool
- Time to read-out: vorinostat for 24 h, read-out about 72 h after transfection
- Treatment: vorinostat at 2.5 µM final
- Measured: 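Cell viability by CellTiter-Fluor and caspase 3/7 activity by luminescence, each scaled to mock wells per plate, duplicates averaged, then robust z-scored over all plates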
- Direction: viability robust z-score: higher = more viable cells than screen typical; caspase robust z-score: higher = more caspase 3/7 activity than screen typical
- Hit rule: 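Hits are knock-downs in viability class RV1/RV2 or caspase class CA1/CA2, excluding ones that killed cells in the no-drug cell-count arm; hits then retested with single siRNAs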

What is on record for MYBL1 (GeneID 4603)?
viability hit class: no change; caspase hit class: no change; viability robust z-score: -0.7; caspase robust z-score: 3.5

What is on record for BCLAF1 (GeneID 9774)?
viability hit class: no change; caspase hit class: no change; viability robust z-score: -2.23; caspase robust z-score: -0.16

What did the screen give for GPR137B (GeneID 7107)?
viability hit class: no change; caspase hit class: no change; viability robust z-score: -0.1; caspase robust z-score: -0.75

How did the screen score OR2D3 (GeneID 120775)?
viability hit class: no change; caspase hit class: no change; viability robust z-score: 0.37; caspase robust z-score: -0.36

What is on record for KPNB1 (GeneID 3837)?
viability hit class: no change; caspase hit class: no change; viability robust z-score: -4.21; caspase robust z-score: 2.4

Which result is listed for ZNF211 (GeneID 10520)?
viability hit class: no change; caspase hit class: no change; viability robust z-score: 0.72; caspase robust z-score: 0.38

What did the screen give for NKAPD1 (GeneID 55216)?
viability hit class: no change; caspase hit class: no change; viability robust z-score: -0.54; caspase robust z-score: 0.64

For ABCC9 (GeneID 10060), what does the deposit list?
viability hit class: no change; caspase hit class: no change; viability robust z-score: -1.14; caspase robust z-score: -0.24

What did the screen give for RNF25 (GeneID 64320)?
viability hit class: no change; caspase hit class: no change; viability robust z-score: -0.14; caspase robust z-score: 2

What did the screen give for ZSCAN9 (GeneID 7746)?
viability hit class: no change; caspase hit class: no change; viability robust z-score: 0.06; caspase robust z-score: -0.42

For OR4D11 (GeneID 219986), what does the deposit list?
viability hit class: no change; caspase hit class: no change; viability robust z-score: 0.14; caspase robust z-score: -0.55

How did the screen score LHFPL2 (GeneID 10184)?
viability hit class: no change; caspase hit class: no change; viability robust z-score: 0.39; caspase robust z-score: -0.58

A run of entries taken from the entries so far:
RNF25 (GeneID 64320) → viability hit class: no change; caspase hit class: no change; viability robust z-score: -0.14; caspase robust z-score: 2
ZSCAN9 (GeneID 7746) → viability hit class: no change; caspase hit class: no change; viability robust z-score: 0.06; caspase robust z-score: -0.42
OR4D11 (GeneID 219986) → viability hit class: no change; caspase hit class: no change; viability robust z-score: 0.14; caspase robust z-score: -0.55
LHFPL2 (GeneID 10184) → viability hit class: no change; caspase hit class: no change; viability robust z-score: 0.39; caspase robust z-score: -0.58

More reagents follow.
How did the screen score ZCCHC13 (GeneID 389874)?
viability hit class: no change; caspase hit class: no change; viability robust z-score: -0.14; caspase robust z-score: 0.62

What is on record for NFE2L2 (GeneID 4780)?
viability hit class: no change; caspase hit class: no change; viability robust z-score: -0.52; caspase robust z-score: 0.21

With HOATZ (GeneID 399949), what was measured?
viability hit class: no change; caspase hit class: no change; viability robust z-score: 0.48; caspase robust z-score: -0.58

How did the screen score MARCHF5 (GeneID 54708)?
viability hit class: no change; caspase hit class: no change; viability robust z-score: -2.04; caspase robust z-score: 4.88

What is on record for MYRF (GeneID 745)?
viability hit class: no change; caspase hit class: no change; viability robust z-score: 0.26; caspase robust z-score: -0.22

How did the screen score KLHDC7B (GeneID 113730)?
viability hit class: no change; caspase hit class: no change; viability robust z-score: -0.9; caspase robust z-score: 5.08

Which result is listed for RAB23 (GeneID 51715)?
viability hit class: no change; caspase hit class: no change; viability robust z-score: 0.84; caspase robust z-score: 1.58

What is on record for ERAP2 (GeneID 64167)?
viability hit class: no change; caspase hit class: no change; viability robust z-score: 0.4; caspase robust z-score: -0.55

What did the screen give for PPP3CC (GeneID 5533)?
viability hit class: no change; caspase hit class: no change; viability robust z-score: -2.79; caspase robust z-score: 0.95

With TUBA3E (GeneID 112714), how do the results read?
viability hit class: no change; caspase hit class: no change; viability robust z-score: -2.06; caspase robust z-score: 1.3

How did the screen score GINM1 (GeneID 116254)?
viability hit class: no change; caspase hit class: no change; viability robust z-score: -0.36; caspase robust z-score: -0.51

Which result is listed for OR4D5 (GeneID 219875)?
viability hit class: no change; caspase hit class: no change; viability robust z-score: 1.77; caspase robust z-score: -0.13

With CXorf38 (GeneID 159013), what was measured?
viability hit class: no change; caspase hit class: no change; viability robust z-score: 0.43; caspase robust z-score: -0.4

What did the screen give for HDAC4 (GeneID 9759)?
viability hit class: no change; caspase hit class: no change; viability robust z-score: 0.36; caspase robust z-score: 1.04

What did the screen give for AMIGO1 (GeneID 57463)?
viability hit class: no change; caspase hit class: no change; viability robust z-score: -0.22; caspase robust z-score: 2.88
